± gives the standard deviation of the averaged measurements. The entries are a selection whose mix differs from that of the whole data set.

Chains of the proteins cited; added tags and fusions are not shown. Lines headed by an entry give the natural chain unless they say otherwise; changes in a name come on top.
UniProt Q5QJE6: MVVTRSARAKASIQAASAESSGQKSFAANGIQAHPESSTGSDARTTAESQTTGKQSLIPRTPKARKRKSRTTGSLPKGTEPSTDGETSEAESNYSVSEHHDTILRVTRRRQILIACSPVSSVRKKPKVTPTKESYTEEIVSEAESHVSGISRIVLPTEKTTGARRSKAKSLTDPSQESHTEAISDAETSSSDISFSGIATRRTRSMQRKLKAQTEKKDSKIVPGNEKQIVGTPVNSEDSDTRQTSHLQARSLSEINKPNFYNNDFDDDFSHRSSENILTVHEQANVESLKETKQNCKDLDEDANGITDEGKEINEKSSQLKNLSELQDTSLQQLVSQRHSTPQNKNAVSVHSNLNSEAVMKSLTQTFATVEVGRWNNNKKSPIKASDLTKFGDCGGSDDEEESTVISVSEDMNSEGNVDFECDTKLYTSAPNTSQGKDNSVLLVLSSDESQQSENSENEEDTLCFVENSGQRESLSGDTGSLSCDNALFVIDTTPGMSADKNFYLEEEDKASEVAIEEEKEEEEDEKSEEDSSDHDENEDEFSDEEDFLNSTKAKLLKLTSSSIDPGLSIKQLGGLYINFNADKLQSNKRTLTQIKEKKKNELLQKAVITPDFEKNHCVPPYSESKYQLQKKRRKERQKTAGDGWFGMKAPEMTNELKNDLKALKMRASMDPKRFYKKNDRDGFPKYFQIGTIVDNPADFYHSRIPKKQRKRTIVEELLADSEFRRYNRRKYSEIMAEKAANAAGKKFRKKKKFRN
UniProt Q16566: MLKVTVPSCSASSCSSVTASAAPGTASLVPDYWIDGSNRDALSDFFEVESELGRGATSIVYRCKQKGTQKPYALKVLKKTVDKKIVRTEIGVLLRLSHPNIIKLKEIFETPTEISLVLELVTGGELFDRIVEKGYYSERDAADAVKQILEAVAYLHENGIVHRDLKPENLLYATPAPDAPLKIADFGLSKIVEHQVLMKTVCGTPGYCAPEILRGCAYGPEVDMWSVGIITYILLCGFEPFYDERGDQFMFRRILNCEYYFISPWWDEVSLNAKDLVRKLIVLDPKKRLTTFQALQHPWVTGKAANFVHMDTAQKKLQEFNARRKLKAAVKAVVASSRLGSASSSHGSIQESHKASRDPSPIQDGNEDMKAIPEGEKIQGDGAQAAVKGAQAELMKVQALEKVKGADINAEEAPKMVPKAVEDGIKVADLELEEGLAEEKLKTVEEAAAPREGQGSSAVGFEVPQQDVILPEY
UniProt Q5GLZ8: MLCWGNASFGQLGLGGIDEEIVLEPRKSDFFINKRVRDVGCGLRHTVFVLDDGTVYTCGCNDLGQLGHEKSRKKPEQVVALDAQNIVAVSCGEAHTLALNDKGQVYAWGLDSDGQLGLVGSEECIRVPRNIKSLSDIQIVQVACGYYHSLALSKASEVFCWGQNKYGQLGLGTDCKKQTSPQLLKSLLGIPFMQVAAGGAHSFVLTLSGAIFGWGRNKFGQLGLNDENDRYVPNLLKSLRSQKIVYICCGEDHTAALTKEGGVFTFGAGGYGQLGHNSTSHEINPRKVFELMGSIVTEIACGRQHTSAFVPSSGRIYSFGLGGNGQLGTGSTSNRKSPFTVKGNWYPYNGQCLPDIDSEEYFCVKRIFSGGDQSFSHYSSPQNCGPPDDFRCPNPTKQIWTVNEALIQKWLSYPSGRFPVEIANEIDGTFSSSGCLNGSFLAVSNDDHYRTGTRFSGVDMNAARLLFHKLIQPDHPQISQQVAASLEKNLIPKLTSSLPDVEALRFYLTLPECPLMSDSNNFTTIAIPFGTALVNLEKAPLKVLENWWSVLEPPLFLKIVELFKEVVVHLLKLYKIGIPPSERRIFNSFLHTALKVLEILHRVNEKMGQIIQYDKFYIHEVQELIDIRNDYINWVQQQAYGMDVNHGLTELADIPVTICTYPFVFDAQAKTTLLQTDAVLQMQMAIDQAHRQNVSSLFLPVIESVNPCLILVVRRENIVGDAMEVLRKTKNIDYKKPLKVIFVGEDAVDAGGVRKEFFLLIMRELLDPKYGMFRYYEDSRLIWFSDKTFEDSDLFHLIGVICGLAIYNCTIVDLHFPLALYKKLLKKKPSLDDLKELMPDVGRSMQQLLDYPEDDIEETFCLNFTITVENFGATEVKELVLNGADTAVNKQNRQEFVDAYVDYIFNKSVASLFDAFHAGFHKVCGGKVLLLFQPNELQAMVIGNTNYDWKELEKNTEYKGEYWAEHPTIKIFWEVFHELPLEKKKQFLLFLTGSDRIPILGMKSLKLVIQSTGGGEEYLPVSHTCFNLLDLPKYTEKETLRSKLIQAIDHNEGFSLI
UniProt Q5RKV6, whole entry: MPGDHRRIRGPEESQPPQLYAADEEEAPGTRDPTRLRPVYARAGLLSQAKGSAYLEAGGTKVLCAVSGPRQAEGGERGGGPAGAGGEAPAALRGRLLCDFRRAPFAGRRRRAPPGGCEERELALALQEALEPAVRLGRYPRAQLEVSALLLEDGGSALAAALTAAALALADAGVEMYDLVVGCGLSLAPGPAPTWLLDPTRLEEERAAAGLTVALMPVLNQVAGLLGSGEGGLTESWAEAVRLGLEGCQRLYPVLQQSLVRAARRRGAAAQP
UniProt Q4G0F5, whole entry: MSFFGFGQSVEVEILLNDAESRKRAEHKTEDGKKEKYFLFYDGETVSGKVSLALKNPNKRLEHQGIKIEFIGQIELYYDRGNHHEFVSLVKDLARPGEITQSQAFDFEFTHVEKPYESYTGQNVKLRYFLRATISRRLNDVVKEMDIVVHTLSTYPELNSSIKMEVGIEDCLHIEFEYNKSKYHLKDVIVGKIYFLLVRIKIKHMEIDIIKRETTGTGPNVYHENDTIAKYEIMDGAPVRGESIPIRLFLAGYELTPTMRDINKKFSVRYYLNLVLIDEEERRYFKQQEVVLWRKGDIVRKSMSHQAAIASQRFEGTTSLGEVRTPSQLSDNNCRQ
UniProt Q53GL0, whole entry: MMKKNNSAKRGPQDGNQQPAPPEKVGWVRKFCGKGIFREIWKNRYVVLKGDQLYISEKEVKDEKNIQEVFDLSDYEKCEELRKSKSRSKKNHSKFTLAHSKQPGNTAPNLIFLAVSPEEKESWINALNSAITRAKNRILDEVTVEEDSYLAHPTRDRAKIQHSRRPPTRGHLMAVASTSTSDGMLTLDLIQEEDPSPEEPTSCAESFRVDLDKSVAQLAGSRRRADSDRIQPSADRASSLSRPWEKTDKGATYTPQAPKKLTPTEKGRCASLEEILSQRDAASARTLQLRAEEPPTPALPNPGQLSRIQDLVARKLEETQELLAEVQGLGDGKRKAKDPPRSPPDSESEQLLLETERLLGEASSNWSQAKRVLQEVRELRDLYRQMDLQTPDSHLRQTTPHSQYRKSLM
UniProt Q5T3J3: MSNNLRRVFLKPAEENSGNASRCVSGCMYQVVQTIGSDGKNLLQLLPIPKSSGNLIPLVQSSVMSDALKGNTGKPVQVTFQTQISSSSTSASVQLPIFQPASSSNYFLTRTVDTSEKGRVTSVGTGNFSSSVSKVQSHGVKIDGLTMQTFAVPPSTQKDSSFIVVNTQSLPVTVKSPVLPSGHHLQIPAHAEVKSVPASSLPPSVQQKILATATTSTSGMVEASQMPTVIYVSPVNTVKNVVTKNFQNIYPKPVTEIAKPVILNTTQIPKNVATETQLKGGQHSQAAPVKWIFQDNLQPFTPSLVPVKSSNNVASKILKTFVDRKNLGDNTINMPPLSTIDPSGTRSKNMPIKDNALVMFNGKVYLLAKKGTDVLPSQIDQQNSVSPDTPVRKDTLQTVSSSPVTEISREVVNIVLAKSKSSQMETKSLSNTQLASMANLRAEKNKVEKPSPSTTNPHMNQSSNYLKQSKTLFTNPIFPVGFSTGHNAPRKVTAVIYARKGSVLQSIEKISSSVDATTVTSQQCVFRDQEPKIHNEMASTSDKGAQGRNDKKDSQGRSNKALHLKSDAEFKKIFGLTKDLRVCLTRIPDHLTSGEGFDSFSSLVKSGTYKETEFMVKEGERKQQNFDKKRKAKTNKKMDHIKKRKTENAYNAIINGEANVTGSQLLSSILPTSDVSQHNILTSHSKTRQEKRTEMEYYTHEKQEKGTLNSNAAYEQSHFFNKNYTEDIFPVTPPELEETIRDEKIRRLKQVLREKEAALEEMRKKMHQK
UniProt Q49AR2: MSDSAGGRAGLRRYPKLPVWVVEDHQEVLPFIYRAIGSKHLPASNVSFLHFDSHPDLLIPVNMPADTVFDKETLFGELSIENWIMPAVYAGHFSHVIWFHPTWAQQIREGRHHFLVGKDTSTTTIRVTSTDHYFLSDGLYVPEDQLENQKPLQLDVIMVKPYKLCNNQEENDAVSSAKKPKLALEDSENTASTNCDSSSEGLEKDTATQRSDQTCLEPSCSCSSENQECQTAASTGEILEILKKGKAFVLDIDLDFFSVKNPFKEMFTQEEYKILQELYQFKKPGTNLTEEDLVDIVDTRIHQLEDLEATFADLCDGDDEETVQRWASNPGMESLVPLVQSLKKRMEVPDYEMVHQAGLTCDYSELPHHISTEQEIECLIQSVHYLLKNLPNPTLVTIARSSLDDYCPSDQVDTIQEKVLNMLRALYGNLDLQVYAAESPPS
UniProt Q53H82: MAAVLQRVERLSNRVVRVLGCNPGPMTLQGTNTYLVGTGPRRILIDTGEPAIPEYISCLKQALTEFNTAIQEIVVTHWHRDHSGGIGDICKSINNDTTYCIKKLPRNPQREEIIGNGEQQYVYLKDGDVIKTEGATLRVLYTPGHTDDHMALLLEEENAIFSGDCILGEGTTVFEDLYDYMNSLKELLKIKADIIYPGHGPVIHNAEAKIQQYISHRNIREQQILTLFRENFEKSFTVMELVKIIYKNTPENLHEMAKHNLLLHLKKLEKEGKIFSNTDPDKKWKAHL
UniProt Q5TFE4: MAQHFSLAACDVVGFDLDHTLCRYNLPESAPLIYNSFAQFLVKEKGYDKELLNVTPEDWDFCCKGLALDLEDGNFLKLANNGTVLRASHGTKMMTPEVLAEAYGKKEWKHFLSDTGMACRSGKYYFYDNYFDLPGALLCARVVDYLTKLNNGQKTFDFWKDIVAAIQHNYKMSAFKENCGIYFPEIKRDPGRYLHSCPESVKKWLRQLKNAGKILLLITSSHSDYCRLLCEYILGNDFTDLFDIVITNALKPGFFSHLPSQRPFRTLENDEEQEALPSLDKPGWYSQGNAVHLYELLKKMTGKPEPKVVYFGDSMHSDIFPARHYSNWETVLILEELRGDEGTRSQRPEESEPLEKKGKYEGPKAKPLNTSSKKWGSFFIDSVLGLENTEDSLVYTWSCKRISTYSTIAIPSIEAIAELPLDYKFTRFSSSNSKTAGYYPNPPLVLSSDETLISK
UniProt Q4KMP7: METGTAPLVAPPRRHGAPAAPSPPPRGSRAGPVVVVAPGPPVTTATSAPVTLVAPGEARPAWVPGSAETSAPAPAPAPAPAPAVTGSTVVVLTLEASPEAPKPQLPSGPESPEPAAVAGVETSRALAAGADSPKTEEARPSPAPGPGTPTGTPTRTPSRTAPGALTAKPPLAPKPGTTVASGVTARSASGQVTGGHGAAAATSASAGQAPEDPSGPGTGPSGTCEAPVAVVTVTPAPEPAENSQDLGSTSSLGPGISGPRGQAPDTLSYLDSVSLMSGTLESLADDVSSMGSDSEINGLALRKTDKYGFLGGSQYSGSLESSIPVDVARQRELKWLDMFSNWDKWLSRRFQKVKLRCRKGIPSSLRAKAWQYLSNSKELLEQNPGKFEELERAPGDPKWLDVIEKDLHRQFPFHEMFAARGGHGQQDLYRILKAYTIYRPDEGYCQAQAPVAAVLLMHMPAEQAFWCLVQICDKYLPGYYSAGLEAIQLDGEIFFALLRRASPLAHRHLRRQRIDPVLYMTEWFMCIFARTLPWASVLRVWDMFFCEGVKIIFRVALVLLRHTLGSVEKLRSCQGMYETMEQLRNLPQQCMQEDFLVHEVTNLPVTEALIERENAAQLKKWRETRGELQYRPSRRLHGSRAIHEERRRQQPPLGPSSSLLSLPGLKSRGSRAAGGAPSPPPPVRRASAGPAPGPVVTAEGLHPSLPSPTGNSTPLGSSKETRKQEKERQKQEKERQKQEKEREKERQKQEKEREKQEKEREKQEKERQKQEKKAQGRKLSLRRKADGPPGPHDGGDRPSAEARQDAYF
UniProt Q15796, whole entry: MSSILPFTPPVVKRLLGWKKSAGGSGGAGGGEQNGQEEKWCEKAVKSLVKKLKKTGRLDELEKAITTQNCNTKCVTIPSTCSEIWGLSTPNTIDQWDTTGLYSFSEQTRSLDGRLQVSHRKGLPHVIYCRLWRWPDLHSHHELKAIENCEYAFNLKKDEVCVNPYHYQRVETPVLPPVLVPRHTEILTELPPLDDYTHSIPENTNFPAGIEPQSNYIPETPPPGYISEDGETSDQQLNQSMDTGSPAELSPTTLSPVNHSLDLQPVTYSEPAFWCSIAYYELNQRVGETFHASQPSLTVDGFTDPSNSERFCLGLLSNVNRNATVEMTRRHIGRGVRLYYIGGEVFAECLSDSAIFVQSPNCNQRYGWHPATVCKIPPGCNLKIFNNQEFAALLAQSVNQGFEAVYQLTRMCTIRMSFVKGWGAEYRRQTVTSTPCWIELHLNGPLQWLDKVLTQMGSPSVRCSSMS

From the supplement of paper PMC6411743 come the findings set out here.

Compound in this test: Nc1ncnc2c1ncn2[C@@H]1O[C@H](COP(=O)(O)OP(=O)(O)NP(=O)(O)O)[C@@H](O)[C@H]1O [adenylyl imidodiphosphate]
The test is described as follows: NP40-soluble protein abundance relative to vehicle (solubility fold change) (ratio); higher = more soluble protein in presence of AMP-PNP. Summed up: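 Crude Jurkat lysate, prepared by Dounce homogenisation, was exposed to eight concentrations from 0.1 to 10 mM for 10 min at room temperature and then 3 min at 37 °C. Solubilisation used 0.8% NP40 with benzonase for 60 min at 4 °C, followed by ultracentrifugation and TMT labelling of the supernatant for LC-MS/MS. After vsn normalisation of intensities, each value is the fold change against the detergent-processed vehicle within each replicate, across three independent experiments.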

Take UniProt Q16555 and related entries: the NP40-soluble protein abundance turned out to be 1.02 ± 0.037 (concentration: 1mM); 1.01 ± 0.036 (concentration: 2mM); 1.01 ± 0.045 (concentration: 4mM); 0.955 ± 0.022 (concentration: 6mM); 0.958 ± 0.046 (concentration: 8mM); 0.95 ± 0.048 (concentration: 10mM).

Turning to DNTTIP2 (UniProt Q5QJE6), the NP40-soluble protein abundance by setting is: (concentration: 1mM) 1.1 ± 0.036; (concentration: 2mM) 1.2 ± 0.022; (concentration: 4mM) 1.27 ± 0.06; (concentration: 6mM) 1.34 ± 0.083; (concentration: 8mM) 1.4 ± 0.12; (concentration: 10mM) 1.53 ± 0.16.

On to CAMK4 (UniProt Q16566), for which the NP40-soluble protein abundance is, setting by setting: (concentration: 1mM) 1.03 ± 0.025; (concentration: 2mM) 1.05 ± 0.053; (concentration: 4mM) 1.05 ± 0.017; (concentration: 6mM) 1.02 ± 0.021; (concentration: 8mM) 1.04 ± 0.017; (concentration: 10mM) 1.03 ± 0.049.

Regarding UniProt Q5GLZ8 and related entries, the NP40-soluble protein abundance was determined as 0.992 ± 0.046 (concentration: 1mM); 0.95 ± 0.042 (concentration: 2mM); 0.984 ± 0.04 (concentration: 4mM); 0.965 ± 0.025 (concentration: 6mM); 0.97 ± 0.012 (concentration: 8mM); 0.957 ± 0.017 (concentration: 10mM).

Regarding EXOSC6 (UniProt Q5RKV6), the NP40-soluble protein abundance is 1.04 ± 0.032 (concentration: 1mM); 1.03 ± 0.041 (concentration: 2mM); 1.08 ± 0.018 (concentration: 4mM); 1.12 ± 0.036 (concentration: 6mM); 1.14 ± 0.052 (concentration: 8mM); 1.14 ± 0.074 (concentration: 10mM).

As for VPS26B (UniProt Q4G0F5), the NP40-soluble protein abundance is, setting by setting: (concentration: 1mM) 0.919 ± 0.063; (concentration: 2mM) 0.825 ± 0.16; (concentration: 4mM) 0.9462 ± 0.006; (concentration: 6mM) 0.906 ± 0.063; (concentration: 8mM) 0.989 ± 0.02; (concentration: 10mM) 0.9152 ± 0.008.

As for UniProt Q53GL0, the NP40-soluble protein abundance is 1.05 ± 0.042 (concentration: 1mM); 1.13 ± 0.035 (concentration: 2mM); 1.06 ± 0.013 (concentration: 4mM); 1.05 ± 0.036 (concentration: 6mM); 1.03 ± 0.019 (concentration: 8mM); 1.07 ± 0.013 (concentration: 10mM).

UniProt Q15370 and related entries: the NP40-soluble protein abundance reads like this: (concentration: 1mM) 0.96 ± 0.035; (concentration: 2mM) 0.975 ± 0.081; (concentration: 4mM) 0.947 ± 0.06; (concentration: 6mM) 1.1 ± 0.14; (concentration: 8mM) 1.1 ± 0.084; (concentration: 10mM) 1.1 ± 0.1.

Regarding UniProt Q5T3J3, the NP40-soluble protein abundance by setting is: (concentration: 1mM) 1.05 ± 0.018; (concentration: 2mM) 1.08 ± 0.063; (concentration: 4mM) 1.06 ± 0.059; (concentration: 6mM) 1.08 ± 0.019; (concentration: 8mM) 1.07 ± 0.034; (concentration: 10mM) 1.13 ± 0.084.

Turning to C5orf22 (UniProt Q49AR2), the NP40-soluble protein abundance by setting is: (concentration: 1mM) 1.02 ± 0.015; (concentration: 2mM) 1.02 ± 0.014; (concentration: 4mM) 1.05 ± 0.017; (concentration: 6mM) 0.983 ± 0.013; (concentration: 8mM) 0.978 ± 0.041; (concentration: 10mM) 1 ± 0.023.

LACTB2 (UniProt Q53H82): the NP40-soluble protein abundance is 1.01 ± 0.024 (concentration: 1mM); 0.977 ± 0.054 (concentration: 2mM); 0.966 ± 0.026 (concentration: 4mM); 0.968 ± 0.048 (concentration: 6mM); 0.958 ± 0.056 (concentration: 8mM); 0.95 ± 0.053 (concentration: 10mM).

In the case of NT5DC1 (UniProt Q5TFE4), the NP40-soluble protein abundance by setting is: (concentration: 1mM) 0.994 ± 0.048; (concentration: 2mM) 0.948 ± 0.083; (concentration: 4mM) 1.02 ± 0.031; (concentration: 6mM) 0.984 ± 0.042; (concentration: 8mM) 1.02 ± 0.025; (concentration: 10mM) 0.975 ± 0.016.

In the case of TBC1D10B (UniProt Q4KMP7), the NP40-soluble protein abundance (concentration: 1mM) turned out to be 0.968 ± 0.043; the NP40-soluble protein abundance (concentration: 2mM) stood at 0.981 ± 0.028; the NP40-soluble protein abundance (concentration: 4mM) came out at 0.991 ± 0.029; the NP40-soluble protein abundance (concentration: 6mM) worked out at 0.978 ± 0.024; the NP40-soluble protein abundance (concentration: 8mM) came out at 0.964 ± 0.069; the NP40-soluble protein abundance (concentration: 10mM) was 0.955 ± 0.041.

Consider PUS10 (UniProt Q3MIT2), for which the NP40-soluble protein abundance came to 0.986 ± 0.05 (concentration: 1mM); 0.954 ± 0.052 (concentration: 2mM); 0.972 ± 0.035 (concentration: 4mM); 0.975 ± 0.029 (concentration: 6mM); 0.985 ± 0.053 (concentration: 8mM); 0.965 ± 0.025 (concentration: 10mM).

For the target UniProt Q15796 and related entries, the NP40-soluble protein abundance by setting is: (concentration: 1mM) 1.02 ± 0.024; (concentration: 2mM) 1.03 ± 0.027; (concentration: 4mM) 0.985 ± 0.029; (concentration: 6mM) 1.04 ± 0.029; (concentration: 8mM) 1.03 ± 0.062; (concentration: 10mM) 1.06 ± 0.082.
